Data from article PMC11649694.

Protein sequences, listed by entry. Tags and fused reporters are not part of them. Lines headed by an entry give the natural chain unless they say otherwise; changes in a name come on top.
UniProt P10074: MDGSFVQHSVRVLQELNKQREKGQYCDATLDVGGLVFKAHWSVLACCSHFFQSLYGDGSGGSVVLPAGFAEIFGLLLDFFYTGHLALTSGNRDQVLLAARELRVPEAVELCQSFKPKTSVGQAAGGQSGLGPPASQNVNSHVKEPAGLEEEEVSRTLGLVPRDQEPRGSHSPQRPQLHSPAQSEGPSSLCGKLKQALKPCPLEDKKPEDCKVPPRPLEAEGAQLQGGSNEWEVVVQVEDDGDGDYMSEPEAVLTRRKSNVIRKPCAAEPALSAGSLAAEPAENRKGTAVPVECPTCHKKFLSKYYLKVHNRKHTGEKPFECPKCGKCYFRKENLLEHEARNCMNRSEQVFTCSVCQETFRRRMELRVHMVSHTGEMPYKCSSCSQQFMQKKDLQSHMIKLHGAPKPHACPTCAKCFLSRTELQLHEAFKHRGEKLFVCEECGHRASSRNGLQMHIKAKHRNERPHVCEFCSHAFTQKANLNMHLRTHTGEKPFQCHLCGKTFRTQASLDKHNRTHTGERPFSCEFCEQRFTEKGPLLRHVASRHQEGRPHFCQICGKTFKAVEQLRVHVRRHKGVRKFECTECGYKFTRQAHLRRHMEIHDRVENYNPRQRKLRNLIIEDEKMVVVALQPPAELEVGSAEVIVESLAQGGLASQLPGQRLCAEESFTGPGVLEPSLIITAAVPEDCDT

Key:
Experiment in all cases: DNA pull-down/immunoblot
[1] = molecular target: ZBTB48 endogenous (U2OS nuclear extract) (Homo sapiens (U2OS cells)) (UniProt P10074); settings: Pull-down: 150 mM NaCl, 50 mM Tris-HCl pH 7.5, 5 mM MgCl2, 0.5% Igepal CA-630, 1 mM DTT, 20 ug salmon sperm DNA, 4 C 2 h; protein in an extract; label: desthiobiotin-dATP
FLAG-ZBTB48 WT = FLAG-ZBTB48 WT (UniProt P10074); settings: Pull-down: 150 mM NaCl, 50 mM Tris-HCl pH 7.5, 5 mM MgCl2, 0.5% Igepal CA-630, 1 mM DTT, 20 ug salmon sperm DNA, 4 C 2 h; protein in a lysate after overexpression; residues 1-688; protein details: FLAG; label: desthiobiotin-dATP
[2] = molecular target: ZBTB48 endogenous (SUDHL4 nuclear extract) (Homo sapiens (SUDHL4 cells)) (UniProt P10074); settings: Pull-down: 150 mM NaCl, 50 mM Tris-HCl pH 7.5, 5 mM MgCl2, 0.5% Igepal CA-630, 1 mM DTT, 20 ug salmon sperm DNA, 4 C 2 h; protein in an extract; label: desthiobiotin-dATP

Sequence	binding result [1]	binding result (FLAG-ZBTB48 WT)	binding result [2]
GTGACTGGTTAGTGATGAGGCTAGTGATGAGGCTGTGTGCTTCTGAGCTGGGCATCCGAA / ACTTCGGATGCCCAGCTCAGAAGCACACAGCCTCATCACTAGCCTCATCACTAACCAGTC [CIITA pIII probe 6]	no binding	–	–
GTGAGTGTGAGTGTGAGTGTGAGTGTGAGTGTGAGTGTGAGTGTGAGTGTGAGTGTGAGT / ACACTCACACTCACACTCACACTCACACTCACACTCACACTCACACTCACACTCACACTC [GTGAGT scramble control]	no binding	no binding	no binding
GTGTGGTAAAATTAGGTGTGGTAAAATTAGGTGTGGTAAAATTAGGTGTGGTAAAATTAG / ACCTAATTTTACCACACCTAATTTTACCACACCTAATTTTACCACACCTAATTTTACCAC [CIITA pIII probe b.2]	no binding	–	–
GTTTTTTTGATGATCCCTCACTTGTTTCTTGTTTTTTTGATGATCCCTCACTTGTTTCTT / ACAAGAAACAAGTGAGGGATCATCAAAAAAACAAGAAACAAGTGAGGGATCATCAAAAAA [CIITA pIII probe e (listed as f in Dataset EV5)]	binds	–	–
GTTTTTTTGATGATCGTTTTTTTGATGATCGTTTTTTTGATGATCGTTTTTTTGATGATC / ACGATCATCAAAAAAACGATCATCAAAAAAACGATCATCAAAAAAACGATCATCAAAAAA [CIITA pIII probe e.1 (listed as f.1 in Dataset EV5)]	no binding	–	–

At least one result comes from cells or an extract, where the contact may be indirect. A negative result means that nothing was seen under these conditions. At least one verdict was read from the data and is not stated in words by the source. For some of these results: Construct, isoform or probe ends are uncertain for at least one entry.
